Laboratory results published in the supplement of paper PMC6078165.
± gives the standard deviation of the averaged measurements. Values are relative to the signal before dosing, not to a vehicle control; the signal also falls without drug.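 Labels refer to human fibroblasts, largely primary: uterine (C12385, HUF), lung (H6013), bone (Hs27A), adrenal (HADF), skin (WS1), plus mammary HMF and breast cancer-associated Hs343T. Cancer lines are basal-like or mesenchymal-like triple-negative breast cancer. The paper counts as hits responses shifting over 3x the replicate standard deviation. The tissue of the other fibroblasts is not given here.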

Tested on: MDAMB468
Experiment: relative JC-1 red fluorescence (viability) vs pre-drug, coculture with fibroblast (fraction); higher = more viable cancer cells
Conditions: 1 µM
Method: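 JC-1 labelled TNBC cells cocultured 1:1 (1,500 cells each) with CellTrace Violet stained primary or stromal fibroblasts in 384-well plates in FluoroBrite medium, treated with one of 42 anticancer drugs at 0.1, 1, 10 or 100 uM. JC-1 red fluorescence (mitochondrial integrity in cancer cells only) was read by plate reader every 8 h for 72 h. Values are normalised to each well's pre-drug value. The stock of one drug was tenfold lower, so its dose labels may be too high.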

COc1cc([C@@H]2c3cc4c(cc3[C@@H](O[C@@H]3O[C@@H]5CO[C@@H](c6cccs6)O[C@H]5[C@H](O)[C@H]3O)[C@H]3COC(=O)[C@H]23)OCO4)cc(OC)c1O [Teniposide]
relative JC-1 red fluorescence
Conditions	8 h	16 h	24 h	32 h	40 h
coculture fibroblast: C12385	0.852 ± 0.015	0.828 ± 0.041	0.787 ± 0.032	0.731 ± 0.039	0.689 ± 0.044
coculture fibroblast: H6013	0.878 ± 0.018	0.891 ± 0.024	0.853 ± 0.046	0.84 ± 0.058	0.833 ± 0.085
coculture fibroblast: H6019	0.84 ± 0.011	0.813 ± 0.017	0.788 ± 0.043	0.74 ± 0.083	0.697 ± 0.11
coculture fibroblast: H6076	0.9069 ± 0.0019	0.8998 ± 0.0047	0.8459 ± 0.0079	0.826 ± 0.018	0.741 ± 0.023
coculture fibroblast: H6231	0.837 ± 0.023	0.876 ± 0.052	0.82 ± 0.085	0.827 ± 0.098	0.755 ± 0.095
coculture fibroblast: HADF	0.895 ± 0.01	0.881 ± 0.017	0.812 ± 0.028	0.788 ± 0.025	0.753 ± 0.018
coculture fibroblast: HCFa	0.8806 ± 0.0031	0.862 ± 0.029	0.806 ± 0.038	0.773 ± 0.04	0.718 ± 0.043
coculture fibroblast: HCPF	0.837 ± 0.016	0.91 ± 0.028	0.835 ± 0.019	0.82244 ± 0.00013	0.7538 ± 0.0039
coculture fibroblast: HHSteC	0.8964 ± 0.0055	0.89982 ± 0.00035	0.849 ± 0.022	0.809 ± 0.026	–
coculture fibroblast: HMF	0.8524 ± 0.0031	0.904 ± 0.013	0.8509 ± 0.0066	0.836 ± 0.013	–
coculture fibroblast: HPFa	0.919 ± 0.027	0.9028 ± 0.0014	0.8912 ± 0.0016	0.837 ± 0.014	–
coculture fibroblast: HUF	0.9 ± 0.017	0.834 ± 0.019	0.789 ± 0.017	0.716 ± 0.018	–
coculture fibroblast: Hs5	0.9791 ± 0.0067	0.9416 ± 0.0029	0.914 ± 0.019	0.88 ± 0.019	–
coculture fibroblast: Hs27A	0.8436 ± 0.0019	0.894 ± 0.012	0.799 ± 0.025	0.806 ± 0.032	–
coculture fibroblast: Hs343T	0.853 ± 0.018	0.907 ± 0.012	0.845 ± 0.032	0.813 ± 0.039	–
coculture fibroblast: WS1	0.83776 ± 0.00018	0.797 ± 0.016	0.768 ± 0.027	0.703 ± 0.039	–
